The record followed here is the supplement of paper PMC8426693.

The other results are listed elsewhere or left out.

One assay deals with SARS-CoV-2 5_SL5 RNA. In words: NMR binding call after quantification (hit when 2 of 3 NMR criteria are met) (binary (1 = binding, 0 = not binding)); higher = binding. To be noted: RNA concentration 10 µM; fragment concentration 200 µM; 293 K.
Take `N#Cc1ccc(Cn2cnc3ccccc32)cc1`: the NMR binding call amounted to 0.
On the same count and under the same terms, the same measure for `NC(=O)C1CCCn2ccnc21` (configuration not stated): 0; for `CCC(NC)c1ccncc1` (configuration not stated): 0.
On the same count and under the same terms, under `Cc1occc1C(=O)Nc1cc(C(C)(C)C)on1` stands 0; under `Cc1c(Cl)cccc1NC(=O)CN.Cl`, 0.
The same measure, in the same setting: under `CC(N)C(=O)Nc1cc(C(F)(F)F)n[nH]1.Cl` (configuration not stated) stands 0.
The molecule `Nc1ncncc1-c1ccc(Cl)cc1` yielded an NMR binding call of 0.
Still for that read-out and setting: under `COC(C)c1nc(-c2cnoc2C)cs1` (configuration not stated) stands 0; under `Cc1nc2ccccc2n1CCC(N)=O`, 0; under `CN(C)c1ccc(CNn2cnnc2)cc1`, 0.
On the same count and under the same terms, the same measure for `CC(N)c1nc(Cc2ccccc2)no1.Cl` (configuration not stated): 0.
Take `COc1ccc(NCc2ccccc2O)cc1`: the NMR binding call turned out to be 0.
Still for that read-out and setting: under `Nc1nccc(-c2ccc(Cl)cc2)n1` stands 1; under `CCNc1ccc(C)nn1`, 0.
Same read-out and setting: under `CC(=O)NCc1ncc[nH]1` stands 0; under `c1ccc(SCCN2CCOCC2)cc1`, 0.
The same measure, in the same setting: the same measure for `CC(C)Nc1cccnc1`: 0; for `FC(F)(F)c1ccc(CN2CCOCC2)cc1`: 0; for `Cc1n[nH]c(C)c1S(=O)(=O)N(C)C`: 0.
`Cn1cc(Oc2ncncc2Cl)cn1` yielded an NMR binding call of 0.
On the same count and under the same terms, the same measure for `Cl.Cl.c1cn(CC2CCCCN2)nn1` (configuration not stated): 0.
Same read-out and setting: the same measure for `CN(C)c1ccc(C(=O)Nc2ccncc2)cc1`: 0.
Still for that read-out and setting: the same measure for `COC(=O)c1ccccc1NC(=O)N1CCCC1`: 0; for `O=C(NCCN1CCCC1=O)Nc1ccccc1`: 0; for `CN(C)Cc1ccc(C#N)cc1`: 0.
As to `Cc1cnc(N2CCNCC2)s1.Cl.Cl`, the NMR binding call amounted to 0.
The same measure, in the same setting: under `Cc1cc2ncn(CC(N)=O)c2cc1C` stands 0; under `CC(C)(C)C(=O)NCCc1nc2ccccc2[nH]1`, 0.
Same read-out and setting: the same measure for `COCC1CN(c2ccccn2)CCO1` (configuration not stated): 0.
Regarding `CC(C)C(=O)Nc1ccc(N2CCCCC2)cc1`, the NMR binding call was 0.
Regarding `OCc1cn(-c2ccc(Cl)c(Cl)c2)nn1`, the NMR binding call came out at 1.
The same measure, in the same setting: the same measure for `CN1CCN(C(=O)CO)CC1`: 0; for `O=C(CCCc1ccccc1)N1CCOCC1`: 0.
On the same count and under the same terms, the same measure for `CC(=O)Nc1ccc(CN2CCOCC2)cc1`: 0.

Another assay deals with SARS-CoV-2 5_SL5a RNA. The description is as above. To be noted: RNA concentration 10 µM; fragment concentration 200 µM; 293 K.
With `NC(=O)C1CCCn2ccnc21` (configuration not stated), the NMR binding call came out at 0.
The same measure, in the same setting: under `CCC(NC)c1ccncc1` (configuration not stated) stands 0; under `Cc1c(Cl)cccc1NC(=O)CN.Cl`, 0.
Still for that read-out and setting: under `CC(N)C(=O)Nc1cc(C(F)(F)F)n[nH]1.Cl` (configuration not stated) stands 0.
On the same count and under the same terms, the same measure for `Nc1ncncc1-c1ccc(Cl)cc1`: 0.
The molecule `COC(C)c1nc(-c2cnoc2C)cs1` (configuration not stated) had an NMR binding call of 0.
Same read-out and setting: under `Cc1nc2ccccc2n1CCC(N)=O` stands 0; under `CN(C)c1ccc(CNn2cnnc2)cc1`, 0.
The same measure, in the same setting: under `CC(N)c1nc(Cc2ccccc2)no1.Cl` (configuration not stated) stands 0; under `COc1ccc(NCc2ccccc2O)cc1`, 0.
Still for that read-out and setting: under `Nc1nccc(-c2ccc(Cl)cc2)n1` stands 0; under `CCNc1ccc(C)nn1`, 0; under `CC(=O)NCc1ncc[nH]1`, 0.
`c1ccc(SCCN2CCOCC2)cc1`: the NMR binding call stood at 0.
Same read-out and setting: under `CC(C)Nc1cccnc1` stands 0; under `FC(F)(F)c1ccc(CN2CCOCC2)cc1`, 0.
The same measure, in the same setting: the same measure for `Cc1n[nH]c(C)c1S(=O)(=O)N(C)C`: 0.
`Cn1cc(Oc2ncncc2Cl)cn1` showed an NMR binding call of 0.
The same measure, in the same setting: the same measure for `Cl.Cl.c1cn(CC2CCCCN2)nn1` (configuration not stated): 0.
Still for that read-out and setting: under `CN(C)c1ccc(C(=O)Nc2ccncc2)cc1` stands 0; under `O=C(NCCN1CCCC1=O)Nc1ccccc1`, 0; under `CN(C)Cc1ccc(C#N)cc1`, 0.
On the same count and under the same terms, under `Cc1cnc(N2CCNCC2)s1.Cl.Cl` stands 0; under `Cc1cc2ncn(CC(N)=O)c2cc1C`, 0.
`CC(C)(C)C(=O)NCCc1nc2ccccc2[nH]1` yielded an NMR binding call of 0.
For the molecule `OCCN1CCOCC1`, the NMR binding call is 0.
The same measure, in the same setting: under `OCC1CN(Cc2ccccc2)CCO1` (configuration not stated) stands 0; under `COCC1CN(c2ccccn2)CCO1` (configuration not stated), 0.
`CC(C)C(=O)Nc1ccc(N2CCCCC2)cc1` gave an NMR binding call of 0.
The same measure, in the same setting: under `OCc1cn(-c2ccc(Cl)c(Cl)c2)nn1` stands 0; under `CN1CCN(C(=O)CO)CC1`, 0.
On the same count and under the same terms, under `O=C(CCCc1ccccc1)N1CCOCC1` stands 0; under `CC(=O)Nc1ccc(CN2CCOCC2)cc1`, 0.
